The list shows only some results of the screen, not a fair sample: it is rich in T/C values a quarter to a half above the control, in often repeated tests (any T/C) and in doses without a T/C. Further doses and runs are listed elsewhere. T/C: endpoint of the treated group in % of that of the vehicle group. Some entries give survivors of the animals treated and no T/C: the source holds a T/C of zero for them, seemingly a mark for toxic or unscored doses. Some doses without a T/C left all or most animals alive at the check, yet need not have been tolerated: the source hardly ever lists a survival T/C far under the control, and the zero likely stands for such cases as well. Survivors were counted at the toxicity check, usually on the fifth day, unless a day is given; later deaths do not show. Schedules are NCI's codes, read here as Q, the interval in days (D) or hours (H), X, the number of doses. Where survival is the endpoint, this PubChem deposit counts one and a half times the control or more as active, and values a quarter to a half above the control carry no call in these data; other NCI protocols may use other cut-offs.
Tested on: L1210 leukemia ip in BDF1 mice, survival T/C
Assay: NCI In Vivo Anticancer Drug Screen. Data for tumor model L1210 Leukemia (intraperitoneal) in B6D2F1 (BDF1) mice
Conditions: higher T/C = longer survival
[1] = T/C endpoint: mean survival time, dose: 100.0 mg/kg/injection, schedule: Q04DX003 (ip), vehicle: saline with Tween-80
[2] = T/C endpoint: mean survival time, dose: 400.0 mg/kg/injection, schedule: Q01DX009 (ip), vehicle: saline with Tween-80
[3] = T/C endpoint: mean survival time, dose: 400.0 mg/kg/injection, schedule: Q04DX003 (ip), vehicle: saline with Tween-80

CCCN(C)/N=N/c1[nH]ncc1C(N)=O
T/C (T/C endpoint: mean survival time, dose: 44.0 mg/kg/injection, schedule: Q01DX009 (ip), vehicle: saline with Tween-80): 149 % of control | T/C (T/C endpoint: mean survival time, dose: 100.0 mg/kg/injection, schedule: Q01DX009 (ip), vehicle: saline with Tween-80): 144 % of control | T/C [1]: 127 % of control | T/C (T/C endpoint: mean survival time, dose: 150.0 mg/kg/injection, schedule: Q01DX009 (ip), vehicle: saline with Tween-80): 135 % of control | survivor count [2]: 1 of 6

FC1(F)SC2CC/C=C\CCC2C1(F)F (stereo not drawn)
survivor count (T/C endpoint: mean survival time, dose: 6.0 mg/kg/injection, schedule: Q01DX009 (ip), vehicle: Klucel (hydroxypropylcellulose) (HPC)): 0 of 6 | survivor count (T/C endpoint: mean survival time, dose: 6.25 mg/kg/injection, schedule: Q04DX003 (ip), vehicle: Klucel (hydroxypropylcellulose) (HPC)): 0 of 6 | survivor count (T/C endpoint: mean survival time, dose: 12.5 mg/kg/injection, schedule: Q04DX003 (ip), vehicle: Klucel (hydroxypropylcellulose) (HPC)): 0 of 6 | survivor count (T/C endpoint: mean survival time, dose: 25.0 mg/kg/injection, schedule: Q04DX003 (ip), vehicle: Klucel (hydroxypropylcellulose) (HPC)): 6 of 6 | survivor count (T/C endpoint: mean survival time, dose: 50.0 mg/kg/injection, schedule: Q04DX003 (ip), vehicle: Klucel (hydroxypropylcellulose) (HPC)): 6 of 6

Cc1c2oc3c(C)ccc(C(=O)NC4C(=O)NC(C(C)C)C(=O)N5CCCC5C(=O)N(C)CC(=O)N(C)C(C(C)C)C(=O)OC4C)c3nc-2c(C(=O)NC2C(=O)NC(C(C)C)C(=O)N3CC(=O)CC3C(=O)N(C)CC(=O)N(C)C(C(C)C)C(=O)OC2C)c(N)c1=O (stereo not drawn)
T/C (T/C endpoint: median survival time, dose: 50.0 micrograms/kg/injection, schedule: Q01DX001 (ip), vehicle: water): 126 % of control | survivor count (T/C endpoint: median survival time, dose: 50.0 micrograms/kg/injection, schedule: Q01DX009 (ip), vehicle: water): 9 of 10 | T/C (T/C endpoint: median survival time, dose: 75.0 micrograms/kg/injection, schedule: Q04DX003 (ip), vehicle: water): 129 % of control | T/C (T/C endpoint: median survival time, dose: 100.0 micrograms/kg/injection, schedule: Q01DX001 (ip), vehicle: water): 126 % of control | survivor count (T/C endpoint: median survival time, dose: 100.0 micrograms/kg/injection, schedule: Q01DX009 (ip), vehicle: water): 0 of 10 | survivor count (T/C endpoint: median survival time, dose: 150.0 micrograms/kg/injection, schedule: Q04DX003 (ip), vehicle: water): 10 of 10 | survivor count (T/C endpoint: median survival time, dose: 200.0 micrograms/kg/injection, schedule: Q01DX001 (ip), vehicle: water): 2 of 10 | survivor count (T/C endpoint: median survival time, dose: 300.0 micrograms/kg/injection, schedule: Q04DX003 (ip), vehicle: water): 0 of 10 | survivor count (T/C endpoint: median survival time, dose: 400.0 micrograms/kg/injection, schedule: Q01DX001 (ip), vehicle: water): 1 of 10 | survivor count (T/C endpoint: median survival time, dose: 600.0 micrograms/kg/injection, schedule: Q04DX003 (ip), vehicle: water): 2 of 10 | survivor count (T/C endpoint: median survival time, dose: 800.0 micrograms/kg/injection, schedule: Q01DX001 (ip), vehicle: water): 1 of 10 | survivor count (T/C endpoint: median survival time, dose: 1600.0 micrograms/kg/injection, schedule: Q01DX001 (ip), vehicle: water): 1 of 10

CCCCCCCCCCCCCCCC[N+]1(C)CCOCC1
survivor count (T/C endpoint: mean survival time, dose: 200.0 mg/kg/injection, schedule: Q01DX009 (ip), vehicle: Klucel (hydroxypropylcellulose) (HPC)): 0 of 3

CCCCSC1CCCC1
survivor count (T/C endpoint: mean survival time, dose: 200.0 mg/kg/injection, schedule: Q01DX009 (ip), vehicle: acetone): 2 of 6 | survivor count (T/C endpoint: mean survival time, dose: 400.0 mg/kg/injection, schedule: Q01DX001 (ip), vehicle: saline): 1 of 6

CCOC(=O)/C(=C\c1cccc2ccccc12)c1ccncc1
survivor count [2]: 6 of 6

COc1cc(C=C(C(C)=O)C(C)=O)ccc1O
survivor count [3]: 5 of 6

CC(O)(Cc1ccccc1)c1ccccc1 (stereo not drawn)
T/C [1]: 125 % of control

NC(=O)c1cc(NC(=O)c2ccc(C(=O)Nc3cc(C(N)=O)cc(C4=NCCN4)c3)cc2)cc(C2=NCCN2)c1
T/C (T/C endpoint: mean survival time, dose: 32.0 mg/kg/injection, schedule: Q01DX015 (ip), vehicle: methylcellulose (MC)): 127 % of control | survivor count (T/C endpoint: mean survival time, dose: 250.0 mg/kg/injection, schedule: Q01DX015 (ip), vehicle: methylcellulose (MC)): 0 of 6 | survivor count (T/C endpoint: mean survival time, dose: 500.0 mg/kg/injection, schedule: Q01DX015 (ip), vehicle: methylcellulose (MC)): 0 of 6

C[CH2][Pb]([CH2]C)([CH2]C)[O]C(=O)c1ccc(N)cc1
survivor count (T/C endpoint: mean survival time, dose: 50.0 mg/kg/injection, schedule: Q04DX002 (ip), vehicle: Klucel (hydroxypropylcellulose) (HPC)): 1 of 3 | survivor count (T/C endpoint: mean survival time, dose: 100.0 mg/kg/injection, schedule: Q04DX002 (ip), vehicle: Klucel (hydroxypropylcellulose) (HPC)): 0 of 3 | survivor count (T/C endpoint: mean survival time, dose: 200.0 mg/kg/injection, schedule: Q04DX002 (ip), vehicle: Klucel (hydroxypropylcellulose) (HPC)): 0 of 3 | survivor count (T/C endpoint: mean survival time, dose: 400.0 mg/kg/injection, schedule: Q04DX002 (ip), vehicle: Klucel (hydroxypropylcellulose) (HPC)): 0 of 3

CC(=O)c1cc(N)ccc1SC#N
survivor count [1]: 0 of 6 | survivor count (T/C endpoint: mean survival time, dose: 200.0 mg/kg/injection, schedule: Q04DX003 (ip), vehicle: saline with Tween-80): 0 of 6 | survivor count [3]: 0 of 6

Source: PubChem BioAssay AID248 (DTP/NCI, 2004)
